Measurements reported in PubChem BioAssay AID652243 (Drosophila RNAi Screening Center, 2013).

- Aim: 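Knock-downs that decrease or increase androgen receptor reporter signal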 (primary screen)
- Cells: Drosophila S2R+ cells
- Knock-down reagent: long dsRNA against Drosophila genes
- Time to read-out: 72 h (48 h, then 24 h hormone)
- Treatment: synthetic androgen R1881 at 10 nM for 24 h
- Measured: 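Per-well raw luminescence of the androgen-driven firefly reporter and of the Renilla control, two replicates each, without normalisation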
- Scale: firefly reporter light: higher = more light from androgen-responsive reporter; Renilla control light: higher = more constitutive control signal (cell number, transfection)
- Hit rule: 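Hit when the log firefly-to-Renilla ratio dropped or increased by a fixed fold versus the mean of GFP or LacZ controls across duplicate plates; lowering cut given as 1.5 and as 3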
- Meaning of the calls: active = hit: reporter lowered or raised; inactive = no hit
The screen tested about 24,000 reagents; shown is an unselected part of those with a known target gene and a result. In the full data, 246 (1%) were called active. 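Plates not normalised; calls are printed but the firefly/Renilla ratio behind them is not deposited; fold cut for lowering reported inconsistently.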 The raw values are shown without normalisation. Unmarked entries are inactive. The numbers tell different reagents against one gene apart. Reagent sequences are not shown. The record does not give: the amount of reagent.

| gene | reagent | firefly reporter light, replicate 1 | firefly reporter light, replicate 2 | Renilla control light, replicate 1 | Renilla control light, replicate 2 |
| --- | --- | --- | --- | --- | --- |
| RpL5 | 1 | 2.29e5 | 2.02e5 | 1.34e6 | 1.22e6 |
| RpL5 | 2 | 5.31e5 | 4.05e5 | 2.41e5 | 2.83e5 |
| Ubc7 | 1 | 5.19e5 | 6.65e5 | 3.44e6 | 3.34e6 |
| CG4452 | 1 | 1.60e6 | 1.39e6 | 1.58e6 | 1.70e6 |
| Epac | 1 | 4.29e5 | 3.88e5 | 3.02e6 | 3.66e6 |
| Epac | 2 | 1.20e6 | 1.00e6 | 2.34e6 | 2.27e6 |
| Epac | 3 | 3.64e5 | 3.15e5 | 2.00e6 | 1.52e6 |
| Pep | 1 | 45311 | 64493 | 6.72e5 | 9.40e5 |
| KFase | 1 | 1.53e5 | 86577 | 1.36e6 | 1.05e6 |
| KFase | 2 | 5.12e5 | 3.02e5 | 1.63e6 | 1.29e6 |
| Amyrel | 1 | 1.14e6 | 1.18e6 | 2.43e6 | 2.40e6 |
| CG14232 | 1 | 1.43e5 | 1.77e5 | 1.26e6 | 8.76e5 |
| CG14232 | 2 | 1.87e5 | 2.26e5 | 6.08e5 | 8.44e5 |
| Tpl94D | 1 | 76614 | 69495 | 1.10e5 | 1.26e5 |
| CG5938 | 1 | 1.02e5 | 83598 | 3.80e5 | 6.45e5 |
| CG5938 | 2 | 4.54e5 | 7.94e5 | 5.90e5 | 8.41e5 |
| Swt1 | 1 | 73711 | 81227 | 5.24e5 | 5.27e5 |
| CG17300 | 1 | 3.61e5 | 2.63e5 | 2.59e6 | 2.22e6 |
| CG17300 | 2 | 3.72e5 | 2.85e5 | 1.01e6 | 1.14e6 |
| Prosbeta7 | 1 | 24677 | 14650 | 4.07e5 | 2.79e5 |
| CG1773 | 1 | 7.28e5 | 6.44e5 | 2.16e6 | 2.26e6 |
| beta4GalNAcTA | 1 | 4.37e5 | 3.83e5 | 3.06e6 | 4.16e6 |
| CG5112 | 1 | 1.11e5 | 67387 | 5.26e5 | 6.07e5 |
| FLASH | 1 | 6.66e5 | 7.08e5 | 2.32e6 | 3.96e6 |
| FLASH | 2 | 9.27e5 | 5.34e5 | 1.08e6 | 4.50e5 |
| lncRNA:CR34024 | 1 | 7.14e5 | 6.19e5 | 1.58e6 | 1.68e6 |
| Eh | 1 | 2.52e5 | 2.94e5 | 2.88e6 | 2.70e6 |
| ecd | 1 | 8.74e5 | 1.07e6 | 1.85e6 | 1.03e6 |
| epsilonCOP | 1 | 5.85e5 | 7.87e5 | 1.94e6 | 1.89e6 |
| epsilonCOP | 2 | 3.35e5 | 2.73e5 | 5.11e5 | 5.74e5 |
| ND-B14.5A | 1 | 3.73e5 | 3.73e5 | 4.33e6 | 3.30e6 |

Already shown: an excerpt of the list.
| gene | reagent | firefly reporter light, replicate 1 | firefly reporter light, replicate 2 | Renilla control light, replicate 1 | Renilla control light, replicate 2 |
| --- | --- | --- | --- | --- | --- |
| CG17300 | 1 | 3.61e5 | 2.63e5 | 2.59e6 | 2.22e6 |
| CG17300 | 2 | 3.72e5 | 2.85e5 | 1.01e6 | 1.14e6 |
| Prosbeta7 | 1 | 24677 | 14650 | 4.07e5 | 2.79e5 |

Further reagents follow:
| gene | reagent | firefly reporter light, replicate 1 | firefly reporter light, replicate 2 | Renilla control light, replicate 1 | Renilla control light, replicate 2 |
| --- | --- | --- | --- | --- | --- |
| CG31704 | 1 | 1.02e6 | 8.91e5 | 2.27e6 | 2.70e6 |
| Cln7 | 1 | 1.19e6 | 4.49e5 | 2.08e6 | 1.58e6 |
| CG4073 | 1 | 1.30e5 | 1.04e5 | 1.43e6 | 2.01e6 |
| Irbp | 1 | 1.91e5 | 1.37e5 | 1.77e6 | 1.51e6 |
| Irbp | 2 | 7.39e5 | 8.71e5 | 1.16e6 | 1.36e6 |
| Irbp | 3 | 5.51e5 | 4.79e5 | 1.28e6 | 1.28e6 |
| Hsc20 | 1 | 9.42e5 | 8.03e5 | 1.92e6 | 2.26e6 |
| eIF3e | 1 | 3.00e5 | 2.42e5 | 1.58e6 | 1.27e6 |
| Ccp84Ae | 1 | 5.57e5 | 3.79e5 | 2.79e6 | 2.97e6 |
| Ccp84Ae | 2 | 2.65e5 | 3.55e5 | 6.19e5 | 1.16e6 |
| Ccp84Ae | 3 | 7.13e5 | 7.33e5 | 1.60e6 | 1.81e6 |
| Cyp313a4 | 1 | 32429 | 41543 | 7.91e5 | 1.08e6 |
| Stip1 | 1 | 7.63e5 | 4.45e5 | 2.25e6 | 1.25e6 |
| spdi | 1 | 42149 | 50995 | 5.28e5 | 3.38e5 |
| spdi | 2 | 1.53e5 | 2.05e5 | 2.64e6 | 2.40e6 |
| Crz | 1 | 1.61e5 | 1.94e5 | 2.13e6 | 2.27e6 |
| ReepA | 1 | 8.03e5 | 7.62e5 | 1.04e6 | 1.03e6 |
| ReepA | 2 | 2.57e5 | 6.17e5 | 8.23e5 | 1.32e6 |
| ReepA | 3 | 3.24e5 | 2.52e5 | 7.77e5 | 7.63e5 |
| ReepA | 4 | 4.00e5 | 2.50e5 | 9.47e5 | 9.56e5 |
| CG8952 | 1 | 95208 | 1.09e5 | 9.56e5 | 7.29e5 |
| salm | 1 | 2.15e5 | 2.48e5 | 1.94e6 | 1.51e6 |
| salm | 2 | 4.79e5 | 4.47e5 | 1.03e6 | 1.08e6 |
| Sod1 | 1 | 2.93e5 | 2.70e5 | 3.40e6 | 2.73e6 |
| Fkbp12 | 1 | 1.52e5 | 1.73e5 | 1.46e6 | 1.66e6 |
| z | 1 | 7.93e5 | 9.90e5 | 1.10e6 | 1.22e6 |
| RpL29 | 1 | 2.85e5 | 2.54e5 | 1.81e6 | 1.66e6 |
